From paper PMC6199744, “Development of Chemical Proteomics for the Folateome and Analysis of the Kinetoplastid Folateome” (ACS Infectious Diseases, 2018)
This continues a long series; more values of the same kind are listed elsewhere.

Test system: L. major lysate proteins
Assay: Multitargeted bead mixture chemoproteomics, single concentration competition, proteome-wide
Format: binding
Conditions: for fold change: vehicle control = 1

## CCCCCCOc1ccc(Cc2cnc(N)nc2N)cc1 [compound 1]
Protein LMJF.28.2750 ACTIVATED PROTEIN KINASE C RECEPTOR (LACK)
  fold change: 1
Protein LMJF.29.0120 PROTEASOME REGULATORY NON-ATPASE SUBUNIT, PUTATIVE
  fold change: 0.95
Protein LMJF.29.0760 LIPOPHOSPHOGLYCAN BIOSYNTHETIC PROTEIN, PUTATIVE,HEAT SHOCK PROTEIN 90, PUTATIVE
  fold change: 0.77
Protein LMJF.29.1240 HYPOTHETICAL PROTEIN, UNKNOWN FUNCTION
  fold change: 0.92
Protein LMJF.29.1270 100 kDa heat shock protein (Hsp100)
  fold change: 0.99
Protein LMJF.30.0120 […] SYNTHASE
  fold change vs vehicle control: 1.28
Protein LMJF.30.0750 4-METHYL-5(BETA-HYDROXYETHYL)-THIAZOLE MONOPHOSPHATE SYNTHESIS PROTEIN, PUTATIVE
  fold change: 0.88
Protein LMJF.30.1940 SUCCINYL-COA:3-KETOACID-COENZYME A TRANSFERASE- LIKE PROTEIN
  fold change: 0.94
Protein LMJF.30.2330 HY[…], UNKNOWN FUNCTION
  fold change: 1.09
Protein LMJF.30.2550 HEAT SHOCK 70-RELATED PROTEIN 1, MIT[…], PUTATIVE
  fold change: 1.13
Protein LMJF.30.3090 HYPOTHETICAL PROTEIN, CONSERVED
  fold change: 0.83
Protein LMJF.30.3130 VALYL-TRNA SYNTHETASE, PUTATIVE
  fold change: 0.99
Protein LMJF.30.3430 HY[…], CONSERVED
  fold change: 1.01
Protein LMJF.30.3600 ATP SYNTHASE, EPSILON CHAIN, PUTATIVE
  fold change vs vehicle control: 1.33
Protein LMJF.30.3730 60S ACIDIC RIBOSOMAL PROTEIN P2, PUTATIVE
  fold change: 0.9
Protein LMJF.32.0050 PROTEIN TRANSPORT PROTEIN SEC13, PUTATIVE
  fold change: 0.94
Protein LMJF.32.0750 RNA BINDING PROTEIN, PUTATIVE
  fold change: 1.04
Protein LMJF.32.1060 DYNEIN, PUTATIVE
  fold change vs vehicle control: 1
Protein LMJF.32.2800 HY[…], CONSERVED
  fold change: 1.35
Protein LMJF.32.3270 CHAPERONIN ALPHA SUBUNIT, PUTATIVE
  fold change: 0.94
Protein LMJF.32.3310 DIHYDROLIPOAMIDE DEHYDROGENASE, PUTATIVE
  fold change: 0.79
Protein LMJF.32.3640 HYPOTHETICAL PROTEIN, CONSERVED
  fold change: 1
Protein LMJF.33.0240 THIOL-DEPENDENT REDUCTASE 1
  fold change: 0.96
Protein LMJF.33.0830 2,4-DIENOYL-COA REDUCTASE FADH1, PUTATIVE
  fold change: 0.68
Protein LMJF.33.1590 HY[…], CONSERVED
  fold change: 1.17
Protein LMJF.33.1750 MACROPHAGE MIGRATION INHIBITORY FACTOR-LIKE PROTEIN
  fold change: 0.99
Protein LMJF.33.2060 HYPOTHETICAL PROTEIN, CONSERVED
  fold change: 0.97
Protein LMJF.33.2270 HY[…], CONSERVED
  fold change: 1.09
Protein LMJF.33.2340 SUCCINYL-COA:3-KETOACID-COENZYME A TRANSFERASE, MITOCHONDRIAL PRECURSOR, PUTATIVE
  fold change: 1
Protein LMJF.33.2540 CARBOXYPEPTIDASE, PUTATIVE,METALLO-PEPTIDASE, CLAN MA(E), FAMILY M32
  fold change: 1.04
Protein LMJF.34.0140 MALATE DEHYDROGENASE
  fold change: 1
Protein LMJF.34.0350 EUKARYOTIC TRANSLATION INITIATION FACTOR 5, PUTATIVE
  fold change: 0.91
Protein LMJF.34.0840 T[…] 1-BETA, PUTATIVE
  fold change: 1.09
Protein LMJF.34.0930 HY[…], CONSERVED
  fold change: 1.07
Protein LMJF.34.2340 ASPARAGINYL-TRNA SYNTHETASE, PUTATIVE
  fold change: 0.87
Protein LMJF.34.2580 HY[…], CONSERVED
  fold change vs vehicle control: 1.13
Protein LMJF.34.3250 PUTATIVE PYRUVATE/INDOLE-PYRUVATE CARBOXYLASE, PUTATIVE
  fold change: 1.16
Protein LMJF.35.0070 PROHIBITIN, PUTATIVE
  fold change: 1
Protein LMJF.35.0240 60S RIBOSOMAL PROTEIN L30
  fold change: 1.08
Protein LMJF.35.0360 ENOYL-COA HYDRATASE/ISOMERASE FAMILY PROTEIN, CONSERVED
  fold change: 1.3
Protein LMJF.35.0820 ASPARTATE AMINOTRANSFERASE, PUTATIVE
  fold change: 1.03
Protein LMJF.35.1220 SHORT CHAIN DEHYDROGENASE, PUTATIVE
  fold change: 0.98
Protein LMJF.35.1230 SHORT CHAIN DEHYDROGENASE, PUTATIVE
  fold change: 1.04
Protein LMJF.35.3080 GLYCEROL KINASE, GLYCOSOMAL, PUTATIVE
  fold change: 0.99
Protein LMJF.35.3230 C[…] LYASE, PUTATIVE
  fold change: 1.04
Protein LMJF.35.4420 MIT[…] TRANSPORTER, PUTATIVE
  fold change: 1.15
Protein LMJF.36.0070 STRESS-INDUCIBLE PROTEIN STI1 HOMOLOG
  fold change: 0.87
Protein LMJF.36.0210 SET DOMAIN PROTEIN, PUTATIVE
  fold change: 0.91
Protein LMJF.36.0320 PROTEASOME BETA 2 SUBUNIT, PUTATIVE
  fold change: 0.98
Protein LMJF.36.0930 40S RIBOSOMAL PROTEIN S18, PUTATIVE
  fold change: 1.4
Protein LMJF.36.1260 FRUCTOSE-1,6-BI[…]
  fold change: 1.14
Protein LMJF.36.1430 TRANSLATION ELONGATION FACTOR 1-BETA, PUTATIVE
  fold change: 0.94
Protein LMJF.36.1600 PROTEASOME ALPHA 1 SUBUNIT, PUTATIVE
  fold change: 0.97
Protein LMJF.36.1650 PROTEASOME BETA 5 SUBUNIT, PUTATIVE
  fold change: 0.94
Protein LMJF.36.2030 CHAPERONIN HSP60, MIT[…]
  fold change: 1.03
Protein LMJF.36.2160 HYPOTHETICAL PROTEIN, CONSERVED
  fold change: 0.87
Protein LMJF.36.2660 DIHYDROLIPOAMIDE ACETYLTRANSFERASE PRECURSOR, PUTATIVE
  fold change: 0.81
Protein LMJF.36.2750 ACETYLTRANSFERASE-LIKE PROTEIN
  fold change: 1.06
Protein LMJF.36.2950 SUCCINYL-COA LIGASE GDP-FORMING] BETA-CHAIN, PUTATIVE
  fold change: 1.03
Protein LMJF.36.3210 14-3-3 PROTEIN-LIKE PROTEIN
  fold change: 1.3
Protein LMJF.36.3410 SHORT CHAIN DEHYDROGENASE-LIKE PROTEIN
  fold change: 0.89
Protein LMJF.36.3530 POLYUBIQUITIN, PUTATIVE
  fold change: 1.09
Protein LMJF.36.4420 60S RIBOSOMAL PROTEIN L22, PUTATIVE
  fold change: 1.13
Protein LMJF.36.4460 HYPOTHETICAL PROTEIN, CONSERVED
  fold change: 0.98
Protein LMJF.36.6540 […] ENDO-1-LIKE PROTEIN
  fold change: 1.16
